# Results taken from PubChem BioAssay AID330 (DTP/NCI, 2004).
# The list shows only some results of the screen, not a fair sample: its compounds were picked by chemical class. Not every dose and run of a compound is shown. T/C is the treated group as % of the vehicle group. Some doses have a count of surviving animals in place of a T/C: the source holds a T/C of zero for them, seemingly a mark for toxic or unscored doses. Some survivor counts are full or nearly so, which does not show that the dose was tolerated: survival well below the control is almost never listed, so the zero probably covers shortened survival too. Counts of survivors are from the toxicity check (mostly the fifth day) where no day follows; animals may have died later. Schedules are NCI's codes, read here as Q, the interval in days (D) or hours (H), X, the number of doses. Where survival is the endpoint, the PubChem record calls one and a half times the control and up active, and a quarter to a half above the control has no call in these data; cut-offs in other NCI protocols can differ. Some entries hold several experiments; the results are listed from low to high. Some T/C values are marked as having no survivor count here; that says nothing about deaths at the dose.
# Test system: P388 leukemia ip, CD2F1 mice, survival T/C
# Assay: NCI In Vivo Anticancer Drug Screen. Data for tumor model P388 Leukemia (intraperitoneal) in CD2F1 (CDF1) mice
# Details: T/C endpoint: median survival time, higher T/C = longer survival
# [1] = dose: 25.0 mg/kg/injection, schedule: Q01DX009 (ip), vehicle: distilled water + Tween-80
# [2] = dose: 25.0 mg/kg/injection, schedule: Q01DX009 (ip), vehicle: saline
# [3] = dose: 50.0 mg/kg/injection, schedule: Q01DX009 (ip), vehicle: saline with Tween-80
# [4] = dose: 100.0 mg/kg/injection, schedule: Q01DX009 (ip), vehicle: saline with Tween-80
# [5] = dose: 200.0 mg/kg/injection, schedule: Q01DX009 (ip), vehicle: saline with Tween-80
# [6] = dose: 50.0 mg/kg/injection, schedule: Q01DX005 (ip), vehicle: saline
# [7] = dose: 100.0 mg/kg/injection, schedule: Q01DX005 (ip), vehicle: saline
# [8] = dose: 200.0 mg/kg/injection, schedule: Q01DX005 (ip), vehicle: saline
compound,measurement,setting,value
NC1(C(=O)O)Cc2ccc(N(CCCl)CCCl)cc2C1 (stereo unspecified),T/C,"dose: 0.78 mg/kg/injection, schedule: Q04DX003 (ip), vehicle: Klucel (hydroxypropylcellulose) (HPC)",178 % of control
same,T/C,"dose: 1.56 mg/kg/injection, schedule: Q04DX003 (ip), vehicle: Klucel (hydroxypropylcellulose) (HPC)",130 and 190 % of control
same,T/C,"dose: 3.13 mg/kg/injection, schedule: Q04DX003 (ip), vehicle: Klucel (hydroxypropylcellulose) (HPC)",201 and 237 % of control
same,T/C,"dose: 6.25 mg/kg/injection, schedule: Q04DX003 (ip), vehicle: Klucel (hydroxypropylcellulose) (HPC)",195 and 299 % of control
same,survivor count,"dose: 12.5 mg/kg/injection, schedule: Q04DX003 (ip), vehicle: Klucel (hydroxypropylcellulose) (HPC)",6 of 6
same,survivor count,"dose: 25.0 mg/kg/injection, schedule: Q04DX003 (ip), vehicle: Klucel (hydroxypropylcellulose) (HPC)",4 of 6
same,survivor count,"dose: 50.0 mg/kg/injection, schedule: Q04DX003 (ip), vehicle: Klucel (hydroxypropylcellulose) (HPC)",4 of 6
same,survivor count,"dose: 100.0 mg/kg/injection, schedule: Q04DX003 (ip), vehicle: Klucel (hydroxypropylcellulose) (HPC)",6 of 6
same,survivor count,"dose: 200.0 mg/kg/injection, schedule: Q04DX003 (ip), vehicle: Klucel (hydroxypropylcellulose) (HPC)",4 of 6
same,survivor count,"dose: 400.0 mg/kg/injection, schedule: Q04DX003 (ip), vehicle: Klucel (hydroxypropylcellulose) (HPC)",4 of 6
O=C(OCCN1CCCC1)N(CCCl)CCCl,T/C,"dose: 1.56 mg/kg/injection, schedule: Q01DX009 (ip), vehicle: distilled water + Tween-80",100 % of control
same,T/C,"dose: 3.13 mg/kg/injection, schedule: Q01DX009 (ip), vehicle: distilled water + Tween-80",98 % of control
same,T/C,"dose: 6.25 mg/kg/injection, schedule: Q01DX009 (ip), vehicle: distilled water + Tween-80",100 % of control
same,T/C,"dose: 12.5 mg/kg/injection, schedule: Q01DX009 (ip), vehicle: distilled water + Tween-80",100 % of control
same,T/C,[1],107 % of control
O=P1(Cl)Oc2ccccc2-c2ccccc2O1,T/C,[2],88 % of control
same,T/C,"dose: 50.0 mg/kg/injection, schedule: Q01DX009 (ip), vehicle: saline",89 % of control
same,T/C,"dose: 100.0 mg/kg/injection, schedule: Q01DX009 (ip), vehicle: saline",93 % of control
O=[N+]([O-])c1cccc2c1no[n+]2[O-],T/C,"dose: 6.25 mg/kg/injection, schedule: Q01DX005 (ip), vehicle: saline with Tween-80",118 % of control
same,T/C,"dose: 12.5 mg/kg/injection, schedule: Q01DX005 (ip), vehicle: saline with Tween-80",114 % of control
same,survivor count,"dose: 25.0 mg/kg/injection, schedule: Q01DX005 (ip), vehicle: saline with Tween-80",5 of 6
same,survivor count,"dose: 50.0 mg/kg/injection, schedule: Q01DX005 (ip), vehicle: saline with Tween-80",3 of 6
same,survivor count,"dose: 100.0 mg/kg/injection, schedule: Q01DX005 (ip), vehicle: saline with Tween-80",1 of 6
same,survivor count,"dose: 200.0 mg/kg/injection, schedule: Q01DX005 (ip), vehicle: saline with Tween-80",0 of 6
O=[N+]([O-])c1cc([N+](=O)[O-])c(Nc2cc(Cl)cc(Cl)c2)c([N+](=O)[O-])c1,T/C,[3],97 % of control
same,T/C,[4],103 % of control
same,T/C,[5],95 % of control
CC(C)OP(C)(=O)O.[Th],T/C,[3],103 % of control [survivor count not shown]
same,T/C,[4],105 % of control [survivor count not shown]
same,T/C,[5],99 % of control [survivor count not shown]
COc1c([N+](=O)[O-])cc([N+](=O)[O-])c(C=O)c1OS(=O)(=O)c1ccc(C)c([N+](=O)[O-])c1,survivor count,[1],6 of 6
same,T/C,"dose: 50.0 mg/kg/injection, schedule: Q01DX009 (ip), vehicle: distilled water + Tween-80",102 % of control
same,T/C,"dose: 100.0 mg/kg/injection, schedule: Q01DX009 (ip), vehicle: distilled water + Tween-80",100 % of control
same,T/C,"dose: 200.0 mg/kg/injection, schedule: Q01DX009 (ip), vehicle: distilled water + Tween-80",100 % of control
same,survivor count,"dose: 400.0 mg/kg/injection, schedule: Q01DX009 (ip), vehicle: distilled water + Tween-80",5 of 6
[N-]=[N+]=NC/C(N)=N/O,T/C,[6],101 % of control
same,T/C,[7],107 % of control
same,T/C,[8],110 % of control
BrCCN(CCBr)c1ccc(-c2ccccc2)cc1,T/C,"dose: 100.0 mg/kg/injection, schedule: Q01DX001 (ip), vehicle: Klucel (hydroxypropylcellulose) (HPC)",124 % of control
same,T/C,"dose: 200.0 mg/kg/injection, schedule: Q01DX001 (ip), vehicle: Klucel (hydroxypropylcellulose) (HPC)",154 % of control
same,T/C,"dose: 400.0 mg/kg/injection, schedule: Q01DX001 (ip), vehicle: Klucel (hydroxypropylcellulose) (HPC)",165 % of control
CC(C)N(CCS)C(C)C,T/C,"dose: 6.25 mg/kg/injection, schedule: Q01DX009 (ip), vehicle: saline",97 % of control [survivor count not shown]
same,T/C,"dose: 12.5 mg/kg/injection, schedule: Q01DX009 (ip), vehicle: saline",98 % of control [survivor count not shown]
same,T/C,[2],100 % of control [survivor count not shown]
CCOC(=O)NC(c1ccccc1[N+](=O)[O-])P(=O)(O)Nc1ncn[nH]1 (stereo unspecified),T/C,"dose: 60.0 mg/kg/injection, schedule: Q01DX005 (ip), vehicle: saline with Tween-80",98 % of control
same,T/C,"dose: 120.0 mg/kg/injection, schedule: Q01DX005 (ip), vehicle: saline with Tween-80",101 % of control
same,T/C,"dose: 240.0 mg/kg/injection, schedule: Q01DX005 (ip), vehicle: saline with Tween-80",95 % of control
O=[N+]([O-])c1cc([N+](=O)[O-])c2nonc2c1O,T/C,[6],100 % of control
same,T/C,[7],97 % of control
same,survivor count,[8],5 of 5
FP1(F)(F)N(CCl)P(F)(F)(F)N1CCl,T/C,"dose: 6.25 mg/kg/injection, schedule: Q01DX005 (ip), vehicle: saline",95 % of control
same,T/C,"dose: 12.5 mg/kg/injection, schedule: Q01DX005 (ip), vehicle: saline",101 % of control
same,T/C,"dose: 25.0 mg/kg/injection, schedule: Q01DX005 (ip), vehicle: saline",101 % of control
same,survivor count,[6],0 of 5
same,survivor count,[7],0 of 5
same,survivor count,[8],0 of 5
COc1ccc2c(c1)C1(C)CCC(O2)C12CO2 (stereo unspecified),T/C,"dose: 12.5 mg/kg/injection, schedule: Q01DX009 (ip), vehicle: saline with Tween-80",93 and 111 % of control
same,T/C,"dose: 25.0 mg/kg/injection, schedule: Q01DX009 (ip), vehicle: saline with Tween-80",117 % of control
same,T/C,[3],100 % of control
CN[N+](=O)[O-],T/C,"dose: 6.25 mg/kg/injection, schedule: Q04DX002 (ip), vehicle: saline",93 % of control [survivor count not shown]
same,T/C,"dose: 12.5 mg/kg/injection, schedule: Q04DX002 (ip), vehicle: saline",100 % of control [survivor count not shown]
same,T/C,"dose: 25.0 mg/kg/injection, schedule: Q04DX002 (ip), vehicle: saline",106 % of control [survivor count not shown]
COP(C)(=O)O.[U],T/C,"dose: 6.25 mg/kg/injection, schedule: Q04DX003 (ip), vehicle: saline with Tween-80","87 [survivor count not shown], 100 [survivor count not shown], 113 % of control [survivor count not shown]"
same,T/C,"dose: 12.5 mg/kg/injection, schedule: Q04DX003 (ip), vehicle: saline with Tween-80","99 [survivor count not shown], 116 [survivor count not shown], 126 % of control [survivor count not shown]"
same,T/C,"dose: 25.0 mg/kg/injection, schedule: Q04DX003 (ip), vehicle: saline with Tween-80","92 [survivor count not shown], 108 [survivor count not shown], 113 % of control [survivor count not shown]"
same,T/C,"dose: 50.0 mg/kg/injection, schedule: Q04DX003 (ip), vehicle: saline with Tween-80",117 % of control [survivor count not shown]
